This is an account of results in patent US10583197 (dated 2020).

The nature of this data set: general procedure: solution-phase peptide synthesis; PyBOP/DIPEA; HOBt/pyridine/DIPEA; DEPC/triethylamine. The following applies: conjugation step.

Turning to Acetylene Linker-Val-Cit-PABC-MMAE, the conjugation yield is on record as 70%. As to Acetylene Linker-Val-Cit-PABC-MMAF-OMe, the conjugation yield came to 36%.
